Literature values as cited in patent US9241922B2, “Pharmaceutical solution of taxanes comprising pH regulator and preparation method thereof” (Tasly Holding Group Co., Ltd., priority 2009, dated 2016).

Conditions: background statement

| water-solubility | Compound |
| --- | --- |
| about 4 μg/ml | CC(=O)O[C@H]1C(=O)[C@@]2(C)[C@H]([C@H](OC(=O)c3ccccc3)[C@]3(O)C[C@H](OC(=O)[C@H](O)[C@@H](NC(=O)c4ccccc4)c4ccccc4)C(C)=C1C3(C)C)[C@]1(OC(C)=O)CO[C@@H]1C[C@@H]2O [paclitaxel] |
| about 4 μg/ml | CC(=O)O[C@@]12CO[C@@H]1C[C@H](O)[C@@]1(C)C(=O)[C@H](O)C3=C(C)[C@@H](OC(=O)[C@H](O)[C@@H](NC(=O)OC(C)(C)C)c4ccccc4)C[C@@](O)([C@@H](OC(=O)c4ccccc4)[C@H]21)C3(C)C [docetaxel] |
